Literature values as cited in patent US20150225454A1, “TETRABRANCHED PEPTIDES AND ANALOGUES AS A NEW CLASS OF ANTIMICROBIALS AND THEIR PREPARATION THEREOF” (priority 2012, published 2015).
For at least one compound, name, drawing or mass did not settle the structure.

System: fungi
Conditions: cited from earlier work

## CCC(C)n1ncn(-c2ccc(N3CCN(c4ccc(OCC5COC(Cn6cncn6)(c6ccc(Cl)cc6Cl)O5)cc4)CC3)cc2)c1=O (stereo not shown) [Itraconazole]
  Activity: Broadspectrum
